Laboratory results from the supplement of paper PMC11732987, “Enantioselective OTUD7B fragment discovery through chemoproteomics screening and high-throughput optimisation” (Communications Chemistry, 2025).
The other results are listed elsewhere or left out. The data scatter; read single values as rough.

By UniProt entry, the sequences of proteins in these tests, tags left out. Where a name states a change or a piece, a line headed by the entry shows the natural chain unless it says otherwise. Residues count along the entry.
UniProt Q92576, whole entry, looked up: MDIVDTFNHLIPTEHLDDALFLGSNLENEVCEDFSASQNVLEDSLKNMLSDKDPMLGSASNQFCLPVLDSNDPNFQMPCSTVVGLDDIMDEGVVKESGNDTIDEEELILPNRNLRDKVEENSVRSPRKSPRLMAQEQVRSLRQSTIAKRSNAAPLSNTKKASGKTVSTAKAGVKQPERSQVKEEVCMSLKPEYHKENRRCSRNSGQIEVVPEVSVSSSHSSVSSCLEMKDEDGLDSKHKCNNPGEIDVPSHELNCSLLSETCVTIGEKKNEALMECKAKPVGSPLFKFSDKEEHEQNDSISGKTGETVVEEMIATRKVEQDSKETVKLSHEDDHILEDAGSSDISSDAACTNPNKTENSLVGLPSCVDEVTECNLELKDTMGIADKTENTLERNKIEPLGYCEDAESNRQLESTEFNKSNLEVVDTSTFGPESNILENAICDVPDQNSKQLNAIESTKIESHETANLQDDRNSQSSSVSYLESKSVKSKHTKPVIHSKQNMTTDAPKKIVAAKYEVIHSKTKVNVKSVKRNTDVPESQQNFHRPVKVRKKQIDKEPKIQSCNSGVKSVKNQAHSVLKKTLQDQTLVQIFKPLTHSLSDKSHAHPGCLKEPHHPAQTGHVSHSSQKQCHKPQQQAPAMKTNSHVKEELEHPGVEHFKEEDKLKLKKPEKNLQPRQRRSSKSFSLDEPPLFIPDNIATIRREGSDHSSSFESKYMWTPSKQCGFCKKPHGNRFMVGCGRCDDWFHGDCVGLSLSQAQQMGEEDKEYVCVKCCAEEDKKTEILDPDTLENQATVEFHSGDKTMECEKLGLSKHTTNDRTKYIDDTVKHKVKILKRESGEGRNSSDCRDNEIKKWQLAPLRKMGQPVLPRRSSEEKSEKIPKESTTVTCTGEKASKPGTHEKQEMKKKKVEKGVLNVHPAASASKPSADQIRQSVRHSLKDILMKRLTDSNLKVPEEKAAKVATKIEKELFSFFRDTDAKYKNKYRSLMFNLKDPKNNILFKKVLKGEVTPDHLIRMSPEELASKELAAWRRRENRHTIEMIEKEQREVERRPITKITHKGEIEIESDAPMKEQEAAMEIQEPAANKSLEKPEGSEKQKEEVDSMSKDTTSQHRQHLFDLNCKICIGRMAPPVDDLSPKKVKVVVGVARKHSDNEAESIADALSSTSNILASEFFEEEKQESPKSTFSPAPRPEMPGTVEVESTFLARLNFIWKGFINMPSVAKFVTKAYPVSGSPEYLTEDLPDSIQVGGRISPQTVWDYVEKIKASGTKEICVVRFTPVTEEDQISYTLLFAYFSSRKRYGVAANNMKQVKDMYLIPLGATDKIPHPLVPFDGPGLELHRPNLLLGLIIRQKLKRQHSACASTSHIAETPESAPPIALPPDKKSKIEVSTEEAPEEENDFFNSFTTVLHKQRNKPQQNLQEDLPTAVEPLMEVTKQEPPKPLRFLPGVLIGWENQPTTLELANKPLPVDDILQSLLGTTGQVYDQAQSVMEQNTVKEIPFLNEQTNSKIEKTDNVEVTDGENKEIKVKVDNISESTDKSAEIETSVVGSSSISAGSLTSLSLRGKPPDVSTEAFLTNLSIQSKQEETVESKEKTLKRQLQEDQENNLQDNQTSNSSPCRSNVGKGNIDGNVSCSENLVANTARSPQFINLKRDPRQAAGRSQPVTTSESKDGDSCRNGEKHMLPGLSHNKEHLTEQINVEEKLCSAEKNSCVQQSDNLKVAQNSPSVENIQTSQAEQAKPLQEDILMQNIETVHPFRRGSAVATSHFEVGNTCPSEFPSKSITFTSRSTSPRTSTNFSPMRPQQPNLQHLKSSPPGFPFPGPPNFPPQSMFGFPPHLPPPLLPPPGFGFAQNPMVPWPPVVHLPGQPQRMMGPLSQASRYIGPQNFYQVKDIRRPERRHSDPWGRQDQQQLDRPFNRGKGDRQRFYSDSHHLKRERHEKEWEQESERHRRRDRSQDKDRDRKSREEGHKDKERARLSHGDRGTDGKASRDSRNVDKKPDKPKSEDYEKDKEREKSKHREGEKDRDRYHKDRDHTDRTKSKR
UniProt Q16513, 100-120: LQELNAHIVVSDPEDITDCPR
UniProt Q9Y2I7: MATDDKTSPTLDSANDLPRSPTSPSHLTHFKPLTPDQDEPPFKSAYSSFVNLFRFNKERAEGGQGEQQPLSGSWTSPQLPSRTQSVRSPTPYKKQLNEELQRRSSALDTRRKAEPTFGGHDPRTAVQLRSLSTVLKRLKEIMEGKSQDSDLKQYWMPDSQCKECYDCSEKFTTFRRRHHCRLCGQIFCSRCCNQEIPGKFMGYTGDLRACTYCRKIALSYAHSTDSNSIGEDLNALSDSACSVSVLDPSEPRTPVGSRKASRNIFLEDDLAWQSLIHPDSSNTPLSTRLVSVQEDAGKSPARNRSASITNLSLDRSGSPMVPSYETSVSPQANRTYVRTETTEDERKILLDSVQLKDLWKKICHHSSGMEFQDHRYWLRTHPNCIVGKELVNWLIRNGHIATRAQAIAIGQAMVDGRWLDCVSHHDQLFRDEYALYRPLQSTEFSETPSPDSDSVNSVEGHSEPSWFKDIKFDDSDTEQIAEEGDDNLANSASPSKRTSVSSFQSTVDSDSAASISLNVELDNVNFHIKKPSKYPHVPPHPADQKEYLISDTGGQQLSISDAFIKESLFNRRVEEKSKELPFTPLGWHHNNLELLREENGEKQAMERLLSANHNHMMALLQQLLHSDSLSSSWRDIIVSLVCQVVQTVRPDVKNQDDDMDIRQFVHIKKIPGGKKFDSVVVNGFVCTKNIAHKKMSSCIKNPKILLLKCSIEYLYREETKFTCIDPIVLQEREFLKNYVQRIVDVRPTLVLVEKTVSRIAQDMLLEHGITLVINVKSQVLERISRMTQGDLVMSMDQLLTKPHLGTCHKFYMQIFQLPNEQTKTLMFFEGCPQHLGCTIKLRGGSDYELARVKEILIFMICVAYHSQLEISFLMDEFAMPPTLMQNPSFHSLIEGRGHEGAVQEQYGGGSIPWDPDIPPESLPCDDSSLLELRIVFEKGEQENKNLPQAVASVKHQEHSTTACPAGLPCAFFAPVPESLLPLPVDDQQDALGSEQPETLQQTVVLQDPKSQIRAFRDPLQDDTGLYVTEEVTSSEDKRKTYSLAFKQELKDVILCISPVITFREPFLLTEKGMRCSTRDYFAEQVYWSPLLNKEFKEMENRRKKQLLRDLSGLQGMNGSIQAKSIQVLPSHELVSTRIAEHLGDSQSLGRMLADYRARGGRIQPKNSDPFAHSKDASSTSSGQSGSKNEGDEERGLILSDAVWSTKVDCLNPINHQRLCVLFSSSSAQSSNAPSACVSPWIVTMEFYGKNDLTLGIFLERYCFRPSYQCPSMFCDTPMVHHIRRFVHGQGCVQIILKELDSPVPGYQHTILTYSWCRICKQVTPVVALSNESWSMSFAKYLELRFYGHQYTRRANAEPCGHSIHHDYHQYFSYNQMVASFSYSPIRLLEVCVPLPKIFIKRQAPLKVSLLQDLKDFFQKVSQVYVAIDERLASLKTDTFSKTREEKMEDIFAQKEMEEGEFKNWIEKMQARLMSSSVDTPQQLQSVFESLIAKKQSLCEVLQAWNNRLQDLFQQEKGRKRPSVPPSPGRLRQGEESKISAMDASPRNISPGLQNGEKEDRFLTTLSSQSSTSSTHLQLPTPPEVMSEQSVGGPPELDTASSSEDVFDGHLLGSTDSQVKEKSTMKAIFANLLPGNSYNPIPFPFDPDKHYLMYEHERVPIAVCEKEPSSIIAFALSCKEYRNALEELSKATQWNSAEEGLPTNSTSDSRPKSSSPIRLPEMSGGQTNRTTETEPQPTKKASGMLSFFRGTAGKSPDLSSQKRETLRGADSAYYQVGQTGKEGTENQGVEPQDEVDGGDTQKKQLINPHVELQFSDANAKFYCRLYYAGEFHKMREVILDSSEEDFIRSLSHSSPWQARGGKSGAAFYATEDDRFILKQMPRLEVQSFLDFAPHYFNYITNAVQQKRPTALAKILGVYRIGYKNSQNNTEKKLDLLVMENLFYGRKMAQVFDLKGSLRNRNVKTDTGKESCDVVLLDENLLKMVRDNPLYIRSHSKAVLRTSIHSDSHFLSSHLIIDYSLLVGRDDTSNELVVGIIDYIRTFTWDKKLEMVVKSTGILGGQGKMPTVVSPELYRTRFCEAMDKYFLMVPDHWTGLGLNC
UniProt Q9H8W4, 140-160: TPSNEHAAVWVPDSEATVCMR
UniProt Q99959: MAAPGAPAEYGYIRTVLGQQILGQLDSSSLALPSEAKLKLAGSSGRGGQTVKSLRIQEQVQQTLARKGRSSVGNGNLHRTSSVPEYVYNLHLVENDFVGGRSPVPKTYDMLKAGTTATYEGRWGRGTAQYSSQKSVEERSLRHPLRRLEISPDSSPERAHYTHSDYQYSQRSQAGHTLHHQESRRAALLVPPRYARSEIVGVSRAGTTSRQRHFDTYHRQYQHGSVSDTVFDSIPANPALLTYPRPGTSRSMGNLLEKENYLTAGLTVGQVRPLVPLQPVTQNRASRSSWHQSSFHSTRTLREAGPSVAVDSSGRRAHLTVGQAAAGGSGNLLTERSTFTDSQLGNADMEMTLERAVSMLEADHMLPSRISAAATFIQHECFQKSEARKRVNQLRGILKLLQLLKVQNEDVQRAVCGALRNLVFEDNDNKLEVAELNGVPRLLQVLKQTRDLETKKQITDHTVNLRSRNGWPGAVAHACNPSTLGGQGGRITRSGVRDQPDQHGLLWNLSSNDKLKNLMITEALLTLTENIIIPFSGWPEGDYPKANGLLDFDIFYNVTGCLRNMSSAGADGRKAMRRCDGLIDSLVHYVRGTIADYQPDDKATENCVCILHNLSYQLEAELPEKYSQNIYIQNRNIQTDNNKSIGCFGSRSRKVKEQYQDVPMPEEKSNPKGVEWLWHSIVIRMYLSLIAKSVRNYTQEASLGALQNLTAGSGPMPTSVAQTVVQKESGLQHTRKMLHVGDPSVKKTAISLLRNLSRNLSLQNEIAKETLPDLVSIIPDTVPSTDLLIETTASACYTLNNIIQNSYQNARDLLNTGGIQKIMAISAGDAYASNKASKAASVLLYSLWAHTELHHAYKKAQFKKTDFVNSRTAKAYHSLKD
UniProt Q8IWS0: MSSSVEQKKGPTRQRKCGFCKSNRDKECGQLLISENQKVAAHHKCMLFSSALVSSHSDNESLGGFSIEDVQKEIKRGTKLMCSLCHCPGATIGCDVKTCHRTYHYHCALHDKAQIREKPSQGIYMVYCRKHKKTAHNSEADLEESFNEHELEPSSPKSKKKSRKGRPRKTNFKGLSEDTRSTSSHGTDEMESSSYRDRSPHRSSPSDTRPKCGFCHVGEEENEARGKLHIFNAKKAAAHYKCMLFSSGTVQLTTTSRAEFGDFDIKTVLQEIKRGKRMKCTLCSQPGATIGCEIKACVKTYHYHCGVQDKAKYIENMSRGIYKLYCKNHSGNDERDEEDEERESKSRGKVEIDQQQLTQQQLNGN
UniProt Q07864, 580-604: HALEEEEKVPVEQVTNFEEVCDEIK
UniProt P54278: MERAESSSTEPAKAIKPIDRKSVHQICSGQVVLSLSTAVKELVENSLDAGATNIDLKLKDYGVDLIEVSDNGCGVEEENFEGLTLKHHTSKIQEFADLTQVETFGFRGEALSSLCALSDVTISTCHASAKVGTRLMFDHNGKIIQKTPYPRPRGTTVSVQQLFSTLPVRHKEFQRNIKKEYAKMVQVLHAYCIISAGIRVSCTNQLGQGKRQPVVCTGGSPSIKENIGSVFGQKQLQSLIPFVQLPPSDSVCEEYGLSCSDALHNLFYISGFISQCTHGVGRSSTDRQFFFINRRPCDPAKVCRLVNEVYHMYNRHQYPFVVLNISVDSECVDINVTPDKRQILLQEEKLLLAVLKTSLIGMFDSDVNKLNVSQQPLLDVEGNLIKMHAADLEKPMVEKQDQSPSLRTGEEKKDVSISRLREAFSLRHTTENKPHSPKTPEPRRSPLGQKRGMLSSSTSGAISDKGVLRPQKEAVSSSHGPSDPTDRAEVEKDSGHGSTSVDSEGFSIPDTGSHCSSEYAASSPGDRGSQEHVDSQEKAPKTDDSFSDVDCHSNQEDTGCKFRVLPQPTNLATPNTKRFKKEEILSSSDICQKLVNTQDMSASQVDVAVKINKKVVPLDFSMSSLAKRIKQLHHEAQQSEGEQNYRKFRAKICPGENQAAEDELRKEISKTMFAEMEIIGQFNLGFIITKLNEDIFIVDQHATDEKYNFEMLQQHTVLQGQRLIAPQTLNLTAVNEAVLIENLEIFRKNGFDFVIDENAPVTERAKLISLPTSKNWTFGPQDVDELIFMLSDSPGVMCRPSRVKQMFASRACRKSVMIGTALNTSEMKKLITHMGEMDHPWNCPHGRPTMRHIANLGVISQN
UniProt O15305: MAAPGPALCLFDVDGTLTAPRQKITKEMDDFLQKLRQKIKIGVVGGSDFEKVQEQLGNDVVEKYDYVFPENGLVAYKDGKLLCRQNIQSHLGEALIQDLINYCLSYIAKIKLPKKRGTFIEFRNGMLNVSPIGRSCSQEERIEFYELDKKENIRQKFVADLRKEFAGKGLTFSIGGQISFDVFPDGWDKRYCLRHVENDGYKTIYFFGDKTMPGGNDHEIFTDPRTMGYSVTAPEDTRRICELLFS
UniProt Q99570, 892-917: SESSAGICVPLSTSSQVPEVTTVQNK

The targets below were run with ClCC(=O)N[C@@H]1CCCc2ccccc12 (assay: log2 mean competition ratio of IA-DTB cysteine labelling (DMSO/compound) (log2 ratio); higher = stronger cysteine engagement by compound). Settings: 200 µM; treatment time: 4 h; cell line lysate: HEK293T.
Procedure: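 IA-DTB competitive cysteine chemoproteomics in HEK293T RIPA lysate. Lysates were treated with compound 29 or 30 at 50 or 200 µM for 4 h, then IA-DTB (500 µM, 1 h), trypsin-digested, NeutrAvidin-enriched and analysed by diaPASEF. Competition ratio = intensity DMSO / intensity compound (n=4 treated, n=64 DMSO); binding: mean log2 CR ≥ 1 and p ≤ 0.05 plus QC filters. Target is the cysteine site.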

Row | Target | log2 mean competition ratio
1 | PHF3 C561 (UniProt Q92576) | -0.0382
2 | PKP4 C591 (UniProt Q99569) | 0.136
3 | PKN2 C118 (UniProt Q16513) | 0.413
4 | PHKA1 C656 (UniProt P46020) | 0.0185
5 | PIKFYVE C161 (UniProt Q9Y2I7) | 0.35
6 | PLEKHO1 C269 | 0.316
7 | PLEKHF2 C158 (UniProt Q9H8W4) | 0.0173
8 | PKP2 C647 (UniProt Q99959) | 0.103
9 | PHLPP1 C1312 (UniProt O60346) | 0.264
10 | POLL C425 | 0.0644
11 | PHF6 C28 (UniProt Q8IWS0) | 0.108
12 | PKN2 C394 (UniProt Q16513) | 0.0982
13 | POLD1 C1058 (UniProt P28340) | 0.127
14 | PMPCB C485 (UniProt O75439) | 0.0679
15 | POLE C600 (UniProt Q07864) | -0.0962
16 | PHF3 C1631 (UniProt Q92576) | -0.0079
17 | PMS2 C202 (UniProt P54278) | -0.192
18 | PMM2 C136 (UniProt O15305) | 0.0249
19 | PLEKHG3 C30 | 0.116
20 | POGK C218 (UniProt Q9P215) | 0.316
21 | PLCG2 C791 (UniProt P16885) | 0.128
22 | PKNOX1 C109 (UniProt P55347) | 0.0643
23 | PIK3CA C242 (UniProt P42336) | -0.257
24 | PIK3R4 C899 (UniProt Q99570) | -0.171
25 | PLEKHA7 C699 (UniProt Q6IQ23) | -0.249
26 | PIBF1 C199 (UniProt Q8WXW3) | -0.54
27 | PHKA1 C937 (UniProt P46020) | -0.134
28 | PLEKHM2 C551 (UniProt Q8IWE5) | -0.199

For convenience, some entries already given:
Row | Target | log2 mean competition ratio
15 | POLE C600 (UniProt Q07864) | -0.0962
16 | PHF3 C1631 (UniProt Q92576) | -0.0079
